No constants are given. Whether binding was seen depends on the method and setting. Binding seen in cells or lysates may run through a third protein. Some entries that bind do so weakly or less than the wild type. Values belong to the binder of their own block, whether it stands above or below them.
Key:
[1] = biological target: T1, T-complex subunit δ (mouse (endogenous in mouse brain)) (UniProt P80315); assay: cross-linking
T1 sequence: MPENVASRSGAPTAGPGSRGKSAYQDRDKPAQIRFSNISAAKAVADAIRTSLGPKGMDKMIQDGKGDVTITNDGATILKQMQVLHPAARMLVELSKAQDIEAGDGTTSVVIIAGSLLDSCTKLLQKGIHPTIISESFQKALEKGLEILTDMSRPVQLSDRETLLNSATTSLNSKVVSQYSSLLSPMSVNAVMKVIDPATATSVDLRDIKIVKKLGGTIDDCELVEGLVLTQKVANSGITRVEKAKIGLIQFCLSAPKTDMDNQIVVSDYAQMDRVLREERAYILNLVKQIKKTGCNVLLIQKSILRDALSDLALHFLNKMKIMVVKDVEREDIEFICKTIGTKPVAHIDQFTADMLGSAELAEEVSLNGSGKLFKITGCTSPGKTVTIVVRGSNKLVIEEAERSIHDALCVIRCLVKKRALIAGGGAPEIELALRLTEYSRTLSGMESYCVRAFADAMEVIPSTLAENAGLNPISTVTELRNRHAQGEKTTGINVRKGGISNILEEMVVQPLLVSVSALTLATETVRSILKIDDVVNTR

The chains behind the UniProt entries cited, without tags or fusion partners.
UniProt P11983: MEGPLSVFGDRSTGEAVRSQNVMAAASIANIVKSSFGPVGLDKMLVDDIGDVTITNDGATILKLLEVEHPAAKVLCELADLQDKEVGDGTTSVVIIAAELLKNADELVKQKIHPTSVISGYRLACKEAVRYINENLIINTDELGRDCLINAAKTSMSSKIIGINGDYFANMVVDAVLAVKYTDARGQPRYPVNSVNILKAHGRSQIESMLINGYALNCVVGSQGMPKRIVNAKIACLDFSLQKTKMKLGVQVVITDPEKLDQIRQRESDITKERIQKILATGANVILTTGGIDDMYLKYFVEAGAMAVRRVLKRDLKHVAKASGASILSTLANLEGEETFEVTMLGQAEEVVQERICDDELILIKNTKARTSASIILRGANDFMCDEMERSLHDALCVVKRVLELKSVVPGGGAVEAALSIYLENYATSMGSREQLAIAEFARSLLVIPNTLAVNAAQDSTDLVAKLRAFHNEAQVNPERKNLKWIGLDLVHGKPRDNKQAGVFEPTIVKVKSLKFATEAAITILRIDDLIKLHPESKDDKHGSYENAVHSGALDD

[2] = biological target: T-complex subunit α (mouse (endogenous in mouse brain)) (UniProt P11983); assay: cross-linking

binding [1]: binds
B1: T-complex subunit β (protein, UniProt P80314 1-535)
chain: MASLSLAPVNIFKAGADEERAETARLSSFIGAIAIGDLVKSTLGPKGMDKILLSSGRDAALMVTNDGATILKNIGVDNPAAKVLVDMSRVQDDEVGDGTTSVTVLAAELLREAESLIAKKIHPQTIISGWREATKAAREALLSSAVDHGSDEARFWQDLMNIAGTTLSSKLLTHHKDHFTKLAVEAVLRLKGSGNLEAIHVIKKLGGSLADSYLDEGFLLDKKIGVNQPKRIENAKILIANTGMDTDKIKIFGSRVRVDSTAKVAEIEHAEKEKMKEKVERILKHGINCFINRQLIYNYPEQLFGAAGVMAIEHADFAGVERLALVTGGEIASTFDHPELVKLGSCKLIEEVMIGEDKLIHFSGVALGEACTIVLRGATQQILDEAERSLHDALCVLAQTVKDPRTVYGGGCSEMLMAHAVTQLANRTPGKEAVAMESFAKALRMLPTIIADNAGYDSADLVAQLRAAHSEGHITAGLDMKEGTIGDMAVLGITESFQVKRQVLLSAAEAAEVILRVDNIIKAAPRKRVPDHHPC

binding [2]: binds
B2: T-complex subunit δ (protein, UniProt P80315 1-539)
chain: T1 sequence

— article doi:10.1101/2020.01.26.920447
